{"source": "patent US20250319034A1", "about": "“MICROSPHERE PRODUCTION METHOD” (VITALTE LIFESCIENCES INC., priority 2024, published 2025)", "test": "E2 release assay: samples in incubation medium, free E2 by ELISA", "format": "physicochemical", "conditions": "37° C., 6 rpm; for accumulated E2 release level at 72 hours / day 3: day 3, 50 mL incubation medium", "note": "At least one structure is not confirmed: it was looked up by name or label, or the drawing left a doubt."}
{"smiles": "C[C@]12CC[C@@H]3c4ccc(O)cc4CC[C@H]3[C@@H]1CC[C@@H]2O", "note": "[Embodiment E2, Estradiol]", "values": [{"measurement": "E2 release level (concentration in incubation media) at 24 hours / day 1", "setting": "day 0-1, 50 mL incubation medium", "value": "about 1.85 mg/L"}, {"measurement": "E2 release level (concentration in incubation media) at 48 hours / day 2", "setting": "day 2, 50 mL incubation medium", "value": "reached the saturation point of the incubation media"}, {"measurement": "accumulated E2 release level at 72 hours / day 3", "setting": "listed as E2 powder", "value": "approximates the saturation level"}, {"measurement": "accumulated E2 release level at 72 hours / day 3", "setting": "listed as Free E2 powder", "value": "maintained the saturation point concentration"}]}
